Measured values from patent publication US20250042994A1.
These are yes or no findings as the source states them, for the method shown. Some binding calls cover weakened binding; strength is not graded here.

Sequences of proteins named here, by UniProt entry; tags and fusion partners are left off. Residues count along the entry.
UniProt P15391, residues 20-186: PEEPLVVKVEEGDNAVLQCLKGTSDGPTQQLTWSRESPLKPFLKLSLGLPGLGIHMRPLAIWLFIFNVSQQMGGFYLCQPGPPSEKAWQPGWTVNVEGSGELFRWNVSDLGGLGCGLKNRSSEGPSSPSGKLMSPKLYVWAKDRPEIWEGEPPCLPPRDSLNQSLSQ

Columns and labels:
[1] = biological target: human CD19 exon1-3-his protein (human) (UniProt P15391); assay: ELISA, coated at 2 ug/mL
[2] = biological target: human CD19 exon1-3-His tag protein (human) (UniProt P15391); assay: ELISA on coated human CD19 exon 1-3-His
[3] = biological target: human CD19 exon1-3-His tag protein (human) (UniProt P15391); assay: ELISA, coated human CD19 exon 1-3-His

Measured: binding

B1: F3.124.7 (antibody, human IgG1, V domains shown)
VH: EVQLQQSGPVLVKPGASVKMSCKASGYTFTDYYMNWVKQRHGKSLEWIGISNPYNGGTSYNQKFKDKATLTVDKSSSTAYMELNSLTSEDSAVYYCAREGGTAQPTSGMDYWGQGTSVTVSS
VL: NIMMTQSPSSLAVSAGEKVTMSCKSSQSVLYSSNQKNYLAWYQQKPGQSPKLLIYWASTRESGVPDRFTGSGSGTDFTLTISSVQPEDPAVYYCHQYRSSYTFGGGTKLEIK
binds: [1] | [2] | [3]

B2: F5.11.2 (antibody, human IgG1, V domains shown)
VH: EVQLVESGGDLVKPGGSLKLSCAASGFTFSSYGMSWVRQTPDKRLEWVATISHGGSYTHYPDSVKGRFTISRDNAKNTLYLQMNSLKSEDTAMYYCVRLPITTVEAPYFFDYWGQGTTLTVSS
VL: DIQMTQTTSSLSASLGDRVTISCRASQDIRNYLNWYQQKPDGTVKLLIYYTSILHSGVPSRFSGSGSGTDYSLTINNLEQEDVATYFCQQGNTLYTFGGGTEVELR
binds: [1] | [2] | [3]

B3: F3.23.10 (antibody, human IgG1, V domains shown)
VH: EFQLQQSGPELVKPGASVKISCKASDYSFTDYNMNWVKQSNGASLEWIGIINPNFGSTSYNQKFKGKATLTVDQSSSTAFMQLNSLTSEDSAVYYCARSEYYGSSGFAYWGQGTLVTVSA
VL: DVVVTQTPLSLPVSFGDQVSISCRSSQSLVNSYGNTYLSWYLHKPGQSPQLLIYGISNRFSGVPDRFSGSGSGTDFTLKITTIKPEDLGMYYCLQGTHQPWTFGGGTKLEIK
binds: [1] | [2] | [3]
